Data reported in the supplement of paper PMC10849652.
Some of the results follow.

Sequences of proteins named here, by UniProt entry; tags and fusion partners are left off. A change or cut given only in a name is not applied to a line headed by its entry.
UniProt Q0VGE8: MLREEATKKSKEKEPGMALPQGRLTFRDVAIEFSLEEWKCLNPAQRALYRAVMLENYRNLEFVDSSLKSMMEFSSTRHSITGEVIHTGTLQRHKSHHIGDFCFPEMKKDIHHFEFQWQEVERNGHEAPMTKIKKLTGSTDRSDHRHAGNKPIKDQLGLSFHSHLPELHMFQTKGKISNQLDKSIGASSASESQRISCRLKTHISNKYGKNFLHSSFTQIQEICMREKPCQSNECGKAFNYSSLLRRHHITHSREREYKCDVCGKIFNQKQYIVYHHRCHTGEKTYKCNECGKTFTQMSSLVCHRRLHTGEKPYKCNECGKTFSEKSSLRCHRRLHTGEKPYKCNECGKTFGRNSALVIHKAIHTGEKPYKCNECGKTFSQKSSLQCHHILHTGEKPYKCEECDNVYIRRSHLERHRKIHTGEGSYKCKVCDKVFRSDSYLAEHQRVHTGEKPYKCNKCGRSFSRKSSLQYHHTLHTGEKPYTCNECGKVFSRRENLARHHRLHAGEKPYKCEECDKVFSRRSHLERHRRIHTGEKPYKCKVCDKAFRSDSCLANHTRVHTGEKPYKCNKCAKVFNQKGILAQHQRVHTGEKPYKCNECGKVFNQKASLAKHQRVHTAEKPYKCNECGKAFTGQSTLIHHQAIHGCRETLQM
UniProt Q9Y2D9: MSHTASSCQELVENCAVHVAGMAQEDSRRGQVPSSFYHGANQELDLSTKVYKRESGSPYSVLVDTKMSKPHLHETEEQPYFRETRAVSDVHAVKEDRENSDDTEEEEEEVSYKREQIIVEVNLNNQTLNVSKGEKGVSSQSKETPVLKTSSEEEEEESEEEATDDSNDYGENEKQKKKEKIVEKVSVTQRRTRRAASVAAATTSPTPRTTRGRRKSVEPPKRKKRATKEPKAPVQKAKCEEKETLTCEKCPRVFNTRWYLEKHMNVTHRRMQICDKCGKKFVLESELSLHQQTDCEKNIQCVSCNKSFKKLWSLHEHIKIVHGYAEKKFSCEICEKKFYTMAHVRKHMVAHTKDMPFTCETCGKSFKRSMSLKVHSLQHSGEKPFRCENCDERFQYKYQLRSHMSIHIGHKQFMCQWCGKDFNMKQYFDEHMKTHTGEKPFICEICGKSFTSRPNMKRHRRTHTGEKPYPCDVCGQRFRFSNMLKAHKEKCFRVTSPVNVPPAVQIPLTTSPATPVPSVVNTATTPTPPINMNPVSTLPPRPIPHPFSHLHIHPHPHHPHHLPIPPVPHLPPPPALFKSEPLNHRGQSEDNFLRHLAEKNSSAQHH
UniProt Q96E35: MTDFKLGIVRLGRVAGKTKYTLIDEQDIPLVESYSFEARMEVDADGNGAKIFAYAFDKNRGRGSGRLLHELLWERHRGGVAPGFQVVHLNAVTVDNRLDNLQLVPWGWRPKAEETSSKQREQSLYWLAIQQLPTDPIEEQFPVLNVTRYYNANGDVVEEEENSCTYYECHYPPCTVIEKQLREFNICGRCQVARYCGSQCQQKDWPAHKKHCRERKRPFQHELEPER
UniProt Q9UJN7: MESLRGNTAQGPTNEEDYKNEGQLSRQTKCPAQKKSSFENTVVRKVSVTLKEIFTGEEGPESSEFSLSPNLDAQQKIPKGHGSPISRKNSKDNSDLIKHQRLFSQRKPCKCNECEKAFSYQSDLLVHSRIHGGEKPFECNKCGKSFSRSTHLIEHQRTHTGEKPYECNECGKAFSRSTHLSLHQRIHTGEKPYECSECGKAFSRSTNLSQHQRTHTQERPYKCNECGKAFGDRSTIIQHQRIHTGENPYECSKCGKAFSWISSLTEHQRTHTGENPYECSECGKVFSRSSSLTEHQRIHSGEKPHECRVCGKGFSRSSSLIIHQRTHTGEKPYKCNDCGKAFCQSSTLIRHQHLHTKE
UniProt Q96K58: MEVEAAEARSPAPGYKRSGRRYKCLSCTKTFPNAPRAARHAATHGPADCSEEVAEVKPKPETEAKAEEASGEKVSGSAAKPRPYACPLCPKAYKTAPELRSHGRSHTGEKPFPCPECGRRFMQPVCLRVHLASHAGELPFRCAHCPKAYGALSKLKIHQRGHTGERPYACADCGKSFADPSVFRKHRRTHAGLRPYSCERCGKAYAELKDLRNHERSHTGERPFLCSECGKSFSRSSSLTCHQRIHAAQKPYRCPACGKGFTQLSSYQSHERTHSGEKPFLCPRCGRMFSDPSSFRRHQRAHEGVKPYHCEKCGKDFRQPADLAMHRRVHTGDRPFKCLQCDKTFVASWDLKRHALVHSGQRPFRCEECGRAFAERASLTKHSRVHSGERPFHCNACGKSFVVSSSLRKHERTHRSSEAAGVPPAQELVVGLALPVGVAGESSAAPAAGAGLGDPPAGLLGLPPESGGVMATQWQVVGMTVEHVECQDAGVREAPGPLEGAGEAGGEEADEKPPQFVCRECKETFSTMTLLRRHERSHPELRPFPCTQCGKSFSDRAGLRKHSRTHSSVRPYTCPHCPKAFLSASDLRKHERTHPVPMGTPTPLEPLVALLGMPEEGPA
UniProt Q2TB10: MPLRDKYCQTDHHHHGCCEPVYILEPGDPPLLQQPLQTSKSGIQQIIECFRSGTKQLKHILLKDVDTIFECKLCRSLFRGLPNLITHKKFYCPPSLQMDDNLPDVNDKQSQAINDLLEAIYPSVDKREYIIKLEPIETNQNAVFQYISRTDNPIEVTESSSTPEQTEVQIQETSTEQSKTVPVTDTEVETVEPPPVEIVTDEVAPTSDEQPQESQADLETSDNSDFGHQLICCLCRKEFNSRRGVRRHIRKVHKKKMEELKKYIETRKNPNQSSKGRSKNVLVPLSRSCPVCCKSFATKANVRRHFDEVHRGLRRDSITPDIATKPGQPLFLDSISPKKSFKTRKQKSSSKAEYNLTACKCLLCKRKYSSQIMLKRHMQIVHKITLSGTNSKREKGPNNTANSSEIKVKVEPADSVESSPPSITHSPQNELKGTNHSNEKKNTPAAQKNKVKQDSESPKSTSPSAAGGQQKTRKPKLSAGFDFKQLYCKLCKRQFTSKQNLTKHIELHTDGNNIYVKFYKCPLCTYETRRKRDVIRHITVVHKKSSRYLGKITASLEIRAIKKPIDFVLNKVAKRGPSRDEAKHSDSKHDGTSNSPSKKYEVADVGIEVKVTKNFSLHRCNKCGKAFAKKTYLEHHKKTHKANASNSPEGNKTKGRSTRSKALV
UniProt Q9BU19: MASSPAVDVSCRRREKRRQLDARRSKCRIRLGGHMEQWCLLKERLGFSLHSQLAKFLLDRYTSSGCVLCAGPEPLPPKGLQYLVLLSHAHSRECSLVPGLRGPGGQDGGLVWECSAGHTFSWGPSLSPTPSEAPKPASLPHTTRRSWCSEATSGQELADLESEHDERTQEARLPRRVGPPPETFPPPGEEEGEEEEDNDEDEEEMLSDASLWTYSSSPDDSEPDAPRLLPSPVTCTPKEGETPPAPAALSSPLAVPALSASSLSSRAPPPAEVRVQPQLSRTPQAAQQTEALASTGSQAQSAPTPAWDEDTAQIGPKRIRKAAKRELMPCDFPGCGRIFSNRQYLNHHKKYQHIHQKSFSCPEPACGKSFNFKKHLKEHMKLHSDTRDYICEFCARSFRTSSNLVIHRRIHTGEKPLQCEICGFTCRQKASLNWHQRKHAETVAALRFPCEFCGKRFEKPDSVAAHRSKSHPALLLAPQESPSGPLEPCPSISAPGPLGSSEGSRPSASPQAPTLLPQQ
UniProt Q86VK4: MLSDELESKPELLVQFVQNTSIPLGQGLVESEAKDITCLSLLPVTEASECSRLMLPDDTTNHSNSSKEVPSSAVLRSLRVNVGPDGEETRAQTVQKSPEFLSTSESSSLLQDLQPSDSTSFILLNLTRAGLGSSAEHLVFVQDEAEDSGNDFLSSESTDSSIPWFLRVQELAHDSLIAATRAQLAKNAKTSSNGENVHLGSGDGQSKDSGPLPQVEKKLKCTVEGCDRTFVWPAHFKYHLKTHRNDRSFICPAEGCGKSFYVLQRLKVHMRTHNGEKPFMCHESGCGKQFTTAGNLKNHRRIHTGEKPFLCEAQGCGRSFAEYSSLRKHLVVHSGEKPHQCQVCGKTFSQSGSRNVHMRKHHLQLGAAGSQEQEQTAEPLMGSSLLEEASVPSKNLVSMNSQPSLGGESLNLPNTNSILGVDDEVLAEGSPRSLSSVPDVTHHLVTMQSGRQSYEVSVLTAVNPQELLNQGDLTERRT
UniProt O15015: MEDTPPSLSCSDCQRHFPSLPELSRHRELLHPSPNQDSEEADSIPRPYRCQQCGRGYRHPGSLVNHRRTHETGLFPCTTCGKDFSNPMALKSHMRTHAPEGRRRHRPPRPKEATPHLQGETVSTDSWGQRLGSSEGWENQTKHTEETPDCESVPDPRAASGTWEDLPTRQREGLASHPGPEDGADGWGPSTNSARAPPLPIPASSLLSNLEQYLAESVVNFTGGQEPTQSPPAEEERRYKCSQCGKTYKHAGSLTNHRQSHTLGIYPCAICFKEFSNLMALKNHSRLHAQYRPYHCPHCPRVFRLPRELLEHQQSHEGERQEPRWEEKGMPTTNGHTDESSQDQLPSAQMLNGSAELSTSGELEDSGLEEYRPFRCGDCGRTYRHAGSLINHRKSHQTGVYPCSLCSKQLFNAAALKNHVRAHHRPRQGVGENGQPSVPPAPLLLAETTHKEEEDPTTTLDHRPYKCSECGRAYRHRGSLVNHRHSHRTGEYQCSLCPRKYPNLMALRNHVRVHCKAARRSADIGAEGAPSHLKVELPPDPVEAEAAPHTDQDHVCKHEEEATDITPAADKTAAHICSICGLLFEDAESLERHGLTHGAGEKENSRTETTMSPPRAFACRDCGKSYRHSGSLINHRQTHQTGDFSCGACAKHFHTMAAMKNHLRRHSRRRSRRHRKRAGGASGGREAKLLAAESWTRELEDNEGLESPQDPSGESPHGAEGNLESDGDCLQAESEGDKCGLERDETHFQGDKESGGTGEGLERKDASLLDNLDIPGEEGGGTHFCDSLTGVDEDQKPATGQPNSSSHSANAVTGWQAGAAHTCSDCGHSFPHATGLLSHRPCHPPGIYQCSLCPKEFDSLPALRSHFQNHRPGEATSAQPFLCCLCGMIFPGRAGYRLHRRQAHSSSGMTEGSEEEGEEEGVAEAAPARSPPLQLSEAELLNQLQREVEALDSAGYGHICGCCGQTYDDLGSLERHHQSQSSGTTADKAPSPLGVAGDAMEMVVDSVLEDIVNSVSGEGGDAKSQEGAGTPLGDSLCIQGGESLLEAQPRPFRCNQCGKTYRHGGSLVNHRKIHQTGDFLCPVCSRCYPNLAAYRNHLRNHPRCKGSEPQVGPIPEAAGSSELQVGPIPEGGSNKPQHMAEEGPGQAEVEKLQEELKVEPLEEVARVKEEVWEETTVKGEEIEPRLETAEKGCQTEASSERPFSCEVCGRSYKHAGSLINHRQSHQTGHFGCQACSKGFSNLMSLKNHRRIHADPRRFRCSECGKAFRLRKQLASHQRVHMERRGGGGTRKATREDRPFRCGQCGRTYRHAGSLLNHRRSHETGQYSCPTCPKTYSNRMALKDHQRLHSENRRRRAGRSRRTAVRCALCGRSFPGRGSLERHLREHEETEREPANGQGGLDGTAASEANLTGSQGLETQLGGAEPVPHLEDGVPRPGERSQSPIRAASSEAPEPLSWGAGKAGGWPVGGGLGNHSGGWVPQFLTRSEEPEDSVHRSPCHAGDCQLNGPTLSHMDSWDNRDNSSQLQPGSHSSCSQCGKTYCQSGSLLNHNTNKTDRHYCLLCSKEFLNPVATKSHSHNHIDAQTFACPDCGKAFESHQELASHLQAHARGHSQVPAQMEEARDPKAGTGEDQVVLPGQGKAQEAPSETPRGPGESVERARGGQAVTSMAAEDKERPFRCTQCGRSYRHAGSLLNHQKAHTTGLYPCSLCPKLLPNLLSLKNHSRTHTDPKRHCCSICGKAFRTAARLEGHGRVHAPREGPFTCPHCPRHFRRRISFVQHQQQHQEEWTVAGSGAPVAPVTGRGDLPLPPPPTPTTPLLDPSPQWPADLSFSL
UniProt Q8TAU3: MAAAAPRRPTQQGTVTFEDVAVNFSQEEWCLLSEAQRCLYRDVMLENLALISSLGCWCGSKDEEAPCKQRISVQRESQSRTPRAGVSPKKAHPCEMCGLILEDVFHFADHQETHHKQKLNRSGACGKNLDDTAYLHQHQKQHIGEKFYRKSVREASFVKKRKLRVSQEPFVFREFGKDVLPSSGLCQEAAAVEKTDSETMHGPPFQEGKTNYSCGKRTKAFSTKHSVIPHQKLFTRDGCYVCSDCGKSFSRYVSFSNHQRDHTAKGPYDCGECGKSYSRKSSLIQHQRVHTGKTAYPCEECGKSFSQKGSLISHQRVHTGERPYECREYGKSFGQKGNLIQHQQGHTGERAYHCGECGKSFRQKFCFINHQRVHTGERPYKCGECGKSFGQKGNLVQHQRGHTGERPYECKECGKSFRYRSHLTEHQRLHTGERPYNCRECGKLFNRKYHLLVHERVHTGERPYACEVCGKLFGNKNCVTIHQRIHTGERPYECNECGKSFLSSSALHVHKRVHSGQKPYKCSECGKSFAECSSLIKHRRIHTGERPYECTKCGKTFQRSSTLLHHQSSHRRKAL

Legend:
Experiment in all cases: log2 fold change, soluble protein after heating vs DMSO (PISA); higher = thermal stabilisation; K562 lysate, 10 uM; active = over 0.2 and 3.5 SD of the protein, either way, in both replicates (recomputed)
[1] = compound: CN1CCc2c(c3ccccc3n2Cc2ccc(C(=O)NO)cc2)C1 [Tubastatin A]
Method in brief: (§1)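 Thermal stability, expressed as log-two fold change relative to solvent controls, is given from duplicates. Crude K562 extract in PBS pH 7.4 with 1 mM MgCl2, at 1 mg/mL protein, was treated with 10 μM compound for 30 min and heated in aliquots for 3 min across 48°C-58°C. After pooling, adjustment to 0.5% NP-40 at 4°C and centrifugation at 21,000xg for 90 min, supernatant protein was measured by TMTpro 16plex LC-MS/MS with channel sums equalised.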

[2] = compound: COc1cc(Nc2ncc3c(n2)-c2ccc(Cl)cc2C(c2c(F)cccc2OC)=NC3)ccc1C(=O)O [alisertib]
Method in brief: as §1

[3] = compound: COc1cc2ncnc(Nc3ccc(F)c(Cl)c3)c2cc1OCCCN1CCOCC1 [gefitinib]
Method in brief: as §1

[4] = compound: C[C@@H](Oc1cc(-c2cnn(C3CCNCC3)c2)cnc1N)c1c(Cl)ccc(F)c1Cl [crizotinib]
Method in brief: as §1

[5] = compound: Cc1ccc(-n2nc(C(C)(C)C)cc2NC(=O)Nc2ccc(OCCN3CCOCC3)c3ccccc23)cc1 [doramapimod]
Method in brief: as §1

[6] = compound: CNc1nc(-c2ccc3c(N)n[nH]c3c2)cc(N2C[C@@H](C(=O)NC3CCCCC3)CC[C@H]2C)n1
Method in brief: as §1

[7] = compound: C[C@H](Nc1ncnc2nc[nH]c12)c1cc2cccc(Cl)c2c(=O)n1-c1ccccc1 [duvelisib]
Method in brief: as §1

[8] = compound: CNC(=O)C1=CC=CC=C1NC2=NC(=NC=C2Cl)NC3=C(C=C(C=C3)N4CCOCC4)OC
Method in brief: as §1

[9] = compound: CNC(=O)c1ccc(Nc2ncc(C(F)(F)F)c(NCc3nccnc3N(C)S(C)(=O)=O)n2)cc1 [defactinib]
Method in brief: as §1

[10] = compound: CS(=O)(=O)N1CCN(Cc2cc3nc(-c4cccc5[nH]ncc45)nc(N4CCOCC4)c3s2)CC1 [pictilisib]
Method in brief: as §1

[11] = compound: Cc1ccc(NC(=O)c2ccc(CN3CC[C@H](N(C)C)C3)c(C(F)(F)F)c2)cc1Nc1nccc(-c2cncnc2)n1 [bafetinib]
Method in brief: as §1

[12] = compound: COC(=O)N[C@@H](C)CNc1nccc(-c2cn(C(C)C)nc2-c2cc(Cl)cc(NS(C)(=O)=O)c2F)n1 [encorafenib]
Method in brief: as §1

[13] = compound: COC(=O)[C@H](CCSC)NC(=O)C1=C(C=C(C=C1)NC[C@H](CS)N)C2=CC=CC=C2
Method in brief: as §1

[14] = compound: Cc1cc(Nc2cc(N3CCN(C)CC3)nc(Sc3ccc(NC(=O)C4CC4)cc3)n2)n[nH]1 [tozasertib]
Method in brief: as §1

[15] = compound: COc1cc2nc(-c3cc(F)ccc3O)nc(N[C@@H]3CNC[C@H]3C(C)(C)O)c2cc1OC
Method in brief: as §1

[16] = compound: CS(=O)(=O)CCNCc1ccc(-c2ccc3ncnc(Nc4ccc(OCc5cccc(F)c5)c(Cl)c4)c3c2)o1 [lapatinib]
Method in brief: as §1

Measured: log2 fold change

ZNF816 (UniProt Q0VGE8)
inactive: [1] -0.133 | [2] -0.056 | [3] 0.131 | [4] 0.253 | [5] -0.229

ZNF808 (UniProt Q8N4W9)
inactive: [1] 0.093 | [6] -0.049 | [4] -0.149 | [7] 0.092 | [5] -0.043

ZNF76 (UniProt P36508)
inactive: [8] 0.082 | [9] 0.037 | [4] 0.071 | [5] -0.028

ZNF525 (UniProt J3KR51)
inactive: [8] -0.022 | [9] -0.13 | [10] -0.041 | [11] -0.214

ZNF652 (UniProt Q9Y2D9)
inactive: [4] -0.007 | [5] 0

Two neighbouring entries from above:
ZNF525 (UniProt J3KR51)
inactive: [8] -0.022 | [9] -0.13 | [10] -0.041 | [11] -0.214

ZNF652 (UniProt Q9Y2D9)
inactive: [4] -0.007 | [5] 0

Additional records follow.

ZNF770 (UniProt Q6IQ21)
inactive: [4] -0.197 | [5] 0.079

ZMYND19 (UniProt Q96E35)
inactive: [8] -0.19 | [4] 0.049 | [5] -0.081

ZNF391 (UniProt Q9UJN7)
inactive: [12] -0.164 | [13] 0.234 | [14] -0.088

ZNF785 (UniProt A8K8V0)
inactive: [6] -0.69 | [15] -0.22 | [16] -0.025 | [7] -0.021

ZNF440 (UniProt Q8IYI8)
inactive: [2] -0.038 | [3] 0.042

ZNF184 (UniProt Q99676)
inactive: [1] -0.066 | [6] -0.128 | [2] -0.105 | [3] -0.054 | [4] 0.025 | [7] 0.048 | [5] -0.21

ZNF668 isoform 2 (UniProt Q96K58)
inactive: [8] 0.081 | [2] 0.015 | [15] 0.002 | [3] -0.166 | [16] 0.068 | [4] 0.111 | [5] -0.047

ZNF800 (UniProt Q2TB10)
inactive: [8] 0.077 | [6] 0.079 | [15] -0.126 | [16] -0.017 | [7] -0.019

ZNF100 (UniProt Q8IYN0)
inactive: [10] 0.015 | [4] -0.255 | [5] 0.009 | [11] -0.031

ZNF562 (UniProt Q6V9R5)
inactive: [6] 0.318 | [7] -0.004

ZNF512B (UniProt Q96KM6)
inactive: [1] -0.049 | [15] 0.032 | [16] -0.075

ZNF561-AS1 (UniProt K7EIQ3)
inactive: [1] 0.079 | [8] 0.16 | [10] -0.006 | [11] -0.381

ZUP1 (UniProt Q96AP4)
inactive: [6] 0.166 | [7] -0.025

ZNF692 isoform 5 (UniProt Q9BU19)
inactive: [9] -0.028 | [6] -0.192 | [7] 0.116

ZNF410 isoform 5 (UniProt Q86VK4)
inactive: [12] -0.106 | [13] 0.382 | [4] 0.051 | [14] 0.324 | [5] 0.015

ZMYM5 (UniProt Q9UJ78)
inactive: [8] -0.033 | [9] -0.059

ZRSR2 (UniProt Q15696)
inactive: [4] -0.051 | [5] -0.085

ZNF358 (UniProt Q9NW07)
inactive: [8] -0.127 | [15] 0.005 | [16] 0.036

ZNF708 (UniProt P17019)
inactive: [9] 0.288 | [12] -0.029 | [13] 0.072 | [14] 0.099

ZNF646 (UniProt O15015)
inactive: [1] 0.033 | [4] 0.007 | [5] 0.027

ZNF417 (UniProt Q8TAU3)
inactive: [10] 0.04 | [11] -0.17

ZNF16 (UniProt P17020)
inactive: [4] 0.014 | [5] -0.011
